# The supplement of paper PMC11006884
# The chains behind the UniProt entries cited, without tags or fusion partners. Where a name states a change or a piece, a line headed by the entry shows the natural chain unless it says otherwise.
# UniProt Q15286: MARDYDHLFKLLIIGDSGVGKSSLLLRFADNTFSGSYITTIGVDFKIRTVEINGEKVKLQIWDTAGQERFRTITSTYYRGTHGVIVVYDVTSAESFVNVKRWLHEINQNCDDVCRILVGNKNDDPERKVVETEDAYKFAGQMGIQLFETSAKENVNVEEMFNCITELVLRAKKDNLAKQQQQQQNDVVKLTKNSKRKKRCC
# UniProt Q15233: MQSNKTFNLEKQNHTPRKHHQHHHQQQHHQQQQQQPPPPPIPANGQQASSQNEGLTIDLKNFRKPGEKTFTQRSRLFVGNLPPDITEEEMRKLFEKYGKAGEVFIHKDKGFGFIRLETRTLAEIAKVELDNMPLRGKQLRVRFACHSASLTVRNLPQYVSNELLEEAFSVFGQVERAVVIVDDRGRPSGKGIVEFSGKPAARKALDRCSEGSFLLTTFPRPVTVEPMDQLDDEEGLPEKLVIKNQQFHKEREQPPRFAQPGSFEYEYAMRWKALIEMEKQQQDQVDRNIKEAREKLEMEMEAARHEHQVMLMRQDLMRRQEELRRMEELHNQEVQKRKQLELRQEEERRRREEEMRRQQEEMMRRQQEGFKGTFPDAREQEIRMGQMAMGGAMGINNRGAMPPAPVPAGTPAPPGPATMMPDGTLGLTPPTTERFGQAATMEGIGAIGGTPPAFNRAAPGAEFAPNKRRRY
# UniProt Q15029: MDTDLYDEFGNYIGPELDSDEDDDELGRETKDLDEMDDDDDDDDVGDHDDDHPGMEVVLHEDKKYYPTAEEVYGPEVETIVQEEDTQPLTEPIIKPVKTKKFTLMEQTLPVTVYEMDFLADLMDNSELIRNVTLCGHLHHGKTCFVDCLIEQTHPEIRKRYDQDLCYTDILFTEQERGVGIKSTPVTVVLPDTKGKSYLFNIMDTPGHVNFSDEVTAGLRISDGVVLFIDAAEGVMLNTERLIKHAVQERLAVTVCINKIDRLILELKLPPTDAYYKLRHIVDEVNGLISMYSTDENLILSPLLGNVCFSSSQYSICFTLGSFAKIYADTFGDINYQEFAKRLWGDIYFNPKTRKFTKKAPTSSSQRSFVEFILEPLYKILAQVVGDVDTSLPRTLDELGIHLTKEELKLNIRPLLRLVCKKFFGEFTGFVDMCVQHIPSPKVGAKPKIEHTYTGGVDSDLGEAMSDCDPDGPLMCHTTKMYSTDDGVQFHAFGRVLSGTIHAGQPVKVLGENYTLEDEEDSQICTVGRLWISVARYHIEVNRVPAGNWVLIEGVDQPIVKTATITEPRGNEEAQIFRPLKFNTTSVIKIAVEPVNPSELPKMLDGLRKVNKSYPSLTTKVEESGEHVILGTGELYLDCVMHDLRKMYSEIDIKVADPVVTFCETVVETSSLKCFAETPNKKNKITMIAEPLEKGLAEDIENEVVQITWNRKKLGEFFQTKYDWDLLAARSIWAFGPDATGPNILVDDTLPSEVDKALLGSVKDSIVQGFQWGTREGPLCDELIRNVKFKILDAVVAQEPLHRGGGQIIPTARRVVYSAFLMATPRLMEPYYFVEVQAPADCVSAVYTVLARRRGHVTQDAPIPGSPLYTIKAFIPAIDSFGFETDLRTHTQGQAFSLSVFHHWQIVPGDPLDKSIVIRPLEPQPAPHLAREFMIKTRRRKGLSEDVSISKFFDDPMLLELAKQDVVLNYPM
# UniProt Q15181: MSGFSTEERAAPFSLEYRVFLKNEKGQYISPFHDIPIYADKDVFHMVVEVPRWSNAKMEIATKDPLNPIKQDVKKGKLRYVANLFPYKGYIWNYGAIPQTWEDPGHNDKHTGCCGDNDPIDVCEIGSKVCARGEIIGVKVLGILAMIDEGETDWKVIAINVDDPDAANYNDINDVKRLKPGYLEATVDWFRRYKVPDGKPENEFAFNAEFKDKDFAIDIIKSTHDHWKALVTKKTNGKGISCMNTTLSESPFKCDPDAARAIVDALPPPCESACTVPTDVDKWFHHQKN
# UniProt Q15599: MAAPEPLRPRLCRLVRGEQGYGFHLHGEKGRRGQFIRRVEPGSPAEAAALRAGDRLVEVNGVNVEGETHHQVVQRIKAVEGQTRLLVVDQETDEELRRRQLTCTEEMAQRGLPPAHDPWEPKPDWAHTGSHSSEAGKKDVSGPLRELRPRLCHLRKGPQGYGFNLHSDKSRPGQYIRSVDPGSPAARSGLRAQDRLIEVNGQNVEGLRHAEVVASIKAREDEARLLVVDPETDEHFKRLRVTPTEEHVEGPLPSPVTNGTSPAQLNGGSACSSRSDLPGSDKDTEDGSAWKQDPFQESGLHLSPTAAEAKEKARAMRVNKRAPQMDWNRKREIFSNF
# UniProt Q29RF7: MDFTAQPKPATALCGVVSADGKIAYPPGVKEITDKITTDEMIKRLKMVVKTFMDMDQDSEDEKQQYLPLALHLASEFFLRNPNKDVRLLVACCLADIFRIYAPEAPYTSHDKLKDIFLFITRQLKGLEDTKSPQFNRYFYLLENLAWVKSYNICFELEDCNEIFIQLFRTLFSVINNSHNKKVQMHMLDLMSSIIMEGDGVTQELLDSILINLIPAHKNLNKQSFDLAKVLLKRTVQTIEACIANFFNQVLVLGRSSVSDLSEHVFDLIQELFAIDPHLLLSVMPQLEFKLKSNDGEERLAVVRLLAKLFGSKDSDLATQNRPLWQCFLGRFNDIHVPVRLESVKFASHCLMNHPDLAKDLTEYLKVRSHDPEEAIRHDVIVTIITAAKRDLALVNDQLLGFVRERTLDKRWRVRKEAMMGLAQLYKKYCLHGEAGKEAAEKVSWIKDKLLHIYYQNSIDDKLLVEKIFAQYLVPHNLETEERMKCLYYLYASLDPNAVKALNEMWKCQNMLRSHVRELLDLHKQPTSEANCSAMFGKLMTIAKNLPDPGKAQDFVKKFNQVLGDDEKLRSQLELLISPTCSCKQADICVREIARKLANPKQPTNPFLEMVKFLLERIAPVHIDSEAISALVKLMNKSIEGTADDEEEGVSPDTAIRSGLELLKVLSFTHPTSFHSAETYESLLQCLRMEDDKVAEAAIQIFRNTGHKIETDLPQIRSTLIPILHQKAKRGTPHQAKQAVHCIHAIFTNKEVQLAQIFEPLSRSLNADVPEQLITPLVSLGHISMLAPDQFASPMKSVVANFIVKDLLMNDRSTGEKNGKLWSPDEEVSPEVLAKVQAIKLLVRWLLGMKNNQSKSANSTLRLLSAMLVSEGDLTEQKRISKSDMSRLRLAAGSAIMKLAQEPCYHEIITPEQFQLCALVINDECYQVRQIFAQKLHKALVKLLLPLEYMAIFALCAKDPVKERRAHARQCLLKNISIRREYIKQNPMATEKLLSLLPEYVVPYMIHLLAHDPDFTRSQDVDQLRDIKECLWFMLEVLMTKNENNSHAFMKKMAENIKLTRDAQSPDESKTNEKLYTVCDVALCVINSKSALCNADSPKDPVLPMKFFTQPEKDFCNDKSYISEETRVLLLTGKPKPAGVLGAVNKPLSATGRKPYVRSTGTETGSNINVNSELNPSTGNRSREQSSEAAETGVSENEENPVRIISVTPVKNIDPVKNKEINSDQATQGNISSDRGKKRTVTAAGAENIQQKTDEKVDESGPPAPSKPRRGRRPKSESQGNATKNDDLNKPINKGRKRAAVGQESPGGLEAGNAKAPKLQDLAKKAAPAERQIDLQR
# UniProt Q15276: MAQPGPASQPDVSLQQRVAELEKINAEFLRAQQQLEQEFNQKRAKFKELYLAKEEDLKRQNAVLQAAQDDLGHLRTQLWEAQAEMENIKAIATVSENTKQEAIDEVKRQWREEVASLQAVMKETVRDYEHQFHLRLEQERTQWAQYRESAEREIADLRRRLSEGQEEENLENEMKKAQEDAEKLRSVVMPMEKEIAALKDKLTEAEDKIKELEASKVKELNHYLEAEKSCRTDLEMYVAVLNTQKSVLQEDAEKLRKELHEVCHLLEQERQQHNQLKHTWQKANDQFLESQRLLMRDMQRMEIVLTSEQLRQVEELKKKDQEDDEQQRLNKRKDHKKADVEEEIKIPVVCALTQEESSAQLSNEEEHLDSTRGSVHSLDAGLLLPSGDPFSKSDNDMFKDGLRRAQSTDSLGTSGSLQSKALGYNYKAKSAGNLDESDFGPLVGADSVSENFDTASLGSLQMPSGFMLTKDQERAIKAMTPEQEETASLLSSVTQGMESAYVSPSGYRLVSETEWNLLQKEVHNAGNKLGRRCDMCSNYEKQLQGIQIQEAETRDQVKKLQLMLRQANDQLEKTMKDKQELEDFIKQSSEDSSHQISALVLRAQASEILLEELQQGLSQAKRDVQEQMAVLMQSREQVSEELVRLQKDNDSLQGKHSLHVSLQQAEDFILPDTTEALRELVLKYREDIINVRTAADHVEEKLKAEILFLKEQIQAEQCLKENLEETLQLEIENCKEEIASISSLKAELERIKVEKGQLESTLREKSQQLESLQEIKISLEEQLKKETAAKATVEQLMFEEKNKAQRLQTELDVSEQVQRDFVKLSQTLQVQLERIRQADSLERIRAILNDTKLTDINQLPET
# UniProt Q16576, whole entry, looked up: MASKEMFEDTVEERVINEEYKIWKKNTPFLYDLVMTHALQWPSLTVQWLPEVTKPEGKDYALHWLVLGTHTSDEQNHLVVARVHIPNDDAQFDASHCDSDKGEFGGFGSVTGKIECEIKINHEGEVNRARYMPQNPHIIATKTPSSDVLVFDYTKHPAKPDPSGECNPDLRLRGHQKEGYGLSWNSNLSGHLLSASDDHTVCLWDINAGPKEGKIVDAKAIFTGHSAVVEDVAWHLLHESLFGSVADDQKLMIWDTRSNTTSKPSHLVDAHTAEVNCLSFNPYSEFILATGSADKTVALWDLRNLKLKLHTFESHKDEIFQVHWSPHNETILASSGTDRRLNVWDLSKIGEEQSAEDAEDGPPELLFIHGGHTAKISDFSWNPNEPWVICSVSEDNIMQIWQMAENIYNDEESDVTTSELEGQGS
# UniProt Q15365, whole entry, looked up: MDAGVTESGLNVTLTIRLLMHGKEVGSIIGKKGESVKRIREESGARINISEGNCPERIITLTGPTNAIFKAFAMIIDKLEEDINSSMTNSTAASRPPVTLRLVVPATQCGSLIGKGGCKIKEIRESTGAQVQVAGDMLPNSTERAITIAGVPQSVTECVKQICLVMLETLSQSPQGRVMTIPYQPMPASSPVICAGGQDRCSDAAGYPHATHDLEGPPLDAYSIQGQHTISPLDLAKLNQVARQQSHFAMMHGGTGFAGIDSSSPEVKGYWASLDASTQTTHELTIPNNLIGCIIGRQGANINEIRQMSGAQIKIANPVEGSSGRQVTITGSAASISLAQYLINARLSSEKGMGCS
# UniProt Q15170: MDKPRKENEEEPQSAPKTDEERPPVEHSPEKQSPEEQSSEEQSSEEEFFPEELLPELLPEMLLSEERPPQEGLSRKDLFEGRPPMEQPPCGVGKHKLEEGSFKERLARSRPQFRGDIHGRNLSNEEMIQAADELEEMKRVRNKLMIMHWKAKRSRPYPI
# UniProt Q1KMD3: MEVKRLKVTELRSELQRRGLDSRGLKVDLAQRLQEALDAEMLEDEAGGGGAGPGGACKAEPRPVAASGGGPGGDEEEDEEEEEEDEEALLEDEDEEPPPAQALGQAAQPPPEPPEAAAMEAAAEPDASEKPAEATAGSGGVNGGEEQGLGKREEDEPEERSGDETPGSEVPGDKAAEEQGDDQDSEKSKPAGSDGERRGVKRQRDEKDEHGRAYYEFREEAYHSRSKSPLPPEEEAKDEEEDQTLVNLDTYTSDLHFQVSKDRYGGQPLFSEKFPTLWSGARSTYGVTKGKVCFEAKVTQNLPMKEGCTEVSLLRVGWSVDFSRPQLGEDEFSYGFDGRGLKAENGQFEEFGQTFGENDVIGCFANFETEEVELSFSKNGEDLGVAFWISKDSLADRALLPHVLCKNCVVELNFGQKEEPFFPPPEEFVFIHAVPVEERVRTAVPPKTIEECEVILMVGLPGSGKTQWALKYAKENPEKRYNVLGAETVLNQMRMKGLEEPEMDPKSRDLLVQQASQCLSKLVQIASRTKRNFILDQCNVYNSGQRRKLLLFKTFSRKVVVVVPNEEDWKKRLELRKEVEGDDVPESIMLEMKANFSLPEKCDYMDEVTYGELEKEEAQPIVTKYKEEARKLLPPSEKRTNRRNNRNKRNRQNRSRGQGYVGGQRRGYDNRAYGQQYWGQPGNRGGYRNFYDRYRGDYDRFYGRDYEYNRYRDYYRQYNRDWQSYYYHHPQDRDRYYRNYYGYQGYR
# UniProt Q52LJ0: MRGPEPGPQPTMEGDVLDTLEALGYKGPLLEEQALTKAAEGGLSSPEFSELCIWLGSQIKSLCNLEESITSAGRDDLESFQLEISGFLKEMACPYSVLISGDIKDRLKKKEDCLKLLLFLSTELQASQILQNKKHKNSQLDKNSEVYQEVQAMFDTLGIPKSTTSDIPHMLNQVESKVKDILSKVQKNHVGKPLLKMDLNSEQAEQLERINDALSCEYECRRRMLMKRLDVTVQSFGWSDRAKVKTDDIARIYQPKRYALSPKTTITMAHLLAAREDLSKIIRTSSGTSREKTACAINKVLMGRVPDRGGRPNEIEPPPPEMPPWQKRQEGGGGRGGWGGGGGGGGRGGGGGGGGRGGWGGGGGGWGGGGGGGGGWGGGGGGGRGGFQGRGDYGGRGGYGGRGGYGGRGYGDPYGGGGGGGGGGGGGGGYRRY
# This list holds what a sample rich in targets with a hit left over. Single values of this set are uncertain. This is a selection; strong and weak results do not stand in their true shares.
# Compound: COC(=O)/C=C/c1ccccc1 [methyl cinnamate]
# Assay: log2 ratio of iodoacetamide-alkyne labeling of the cysteine site, DMSO over compound (competition); higher = stronger covalent engagement of the cysteine by the compound, active = 1 or more
# Settings: 500 µM; treatment time 1 h; system: HEK293T cell lysate
# Outline: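 Electrophile (500 µM) or vehicle was added to HEK293T lysate (2 mg/mL) for 1 h at ambient temperature before iodoacetamide alkyne labelling (1 h) and click coupling to sCIP-TMT reagents. After pooling, overnight trypsin digestion at 37 °C, streptavidin enrichment and acid elution, peptides were measured by Orbitrap Eclipse LC-MS/MS with FAIMS and quantified in FragPipe. Each cysteine's log2 competition ratio compares mean control-channel with mean compound-channel reporter intensity, control over compound. Data came from duplicate channels across three replicates, excluding cysteines quantified in only one replicate.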
row,Target,log2 ratio of iodoacetamide-alkyne labeling
1,NCAPD2 C816 (UniProt Q15021),inactive: 0.192
2,UniProt Q15286_C163,inactive: 0.183
3,NONO C208 (UniProt Q15233),inactive: -0.0736
4,DBN1 C308 (UniProt Q16643),inactive: -0.0681
5,QSER1 C530 (UniProt Q2KHR3),inactive: 0.0977
6,UniProt Q15046_C496,inactive: 0.185
7,AMOT C1047 (UniProt Q4VCS5),inactive: 0.253
8,EFTUD2 C148 (UniProt Q15029),inactive: 0.0118
9,PPA1 C254 (UniProt Q15181),inactive: 0.125
10,IAH1 C9 (UniProt Q2TAA2),inactive: 0.429
11,SLC9A3R2 C271 (UniProt Q15599),inactive: 0.196
12,EFTUD2 C166 (UniProt Q15029),inactive: 0.0583
13,NSDHL C86 (UniProt Q15738),inactive: -0.0217
14,SF3B3 C1179 (UniProt Q15393),inactive: 0.0366
15,NONO C145 (UniProt Q15233),inactive: 0.0848
16,HSDL1 C328 (UniProt Q3SXM5),inactive: 0.239
17,SMAD2 C312 (UniProt Q15796),inactive: 0.261
18,PPA1 C274 (UniProt Q15181),inactive: 0.152
19,PDS5A C589 (UniProt Q29RF7),inactive: 0.183
20,UGP2 C123 (UniProt Q16851),inactive: 0.283
21,RABEP1 C533 (UniProt Q15276),inactive: 0.12
22,UniProt Q15475_C130,inactive: 0.269
23,RBBP7 C116 (UniProt Q16576),inactive: -0.0166

row,Target,log2 ratio of iodoacetamide-alkyne labeling
1,UniProt Q16513_C131,inactive: 0.326
2,LRRC14 C68 (UniProt Q15048),inactive: 0.451
3,UniProt Q15365_C54,inactive: 0.315
4,LRRFIP1 C750 (UniProt Q32MZ4),inactive: 0.0825
5,UniProt Q15149_C3821,inactive: -0.0457
6,RBBP7 C166 (UniProt Q16576),inactive: 0.0862
7,UniProt Q49MG5_C239,inactive: 0.202
8,PDS5A C1093 (UniProt Q29RF7),inactive: 0.258
9,SHROOM1 C376 (UniProt Q2M3G4),inactive: -0.0353
10,PDIA6 C55 (UniProt Q15084),inactive: 0.00454
11,PCK2 C431 (UniProt Q16822),inactive: -0.11
12,AP5B1 C800 (UniProt Q2VPB7),inactive: 0.604
13,MED1 C324 (UniProt Q15648),inactive: 0.246
14,TWISTNB C28 (UniProt Q3B726),inactive: 0.461
15,INF2 C971 (UniProt Q27J81),inactive: 0.179
16,CCDC85B C173 (UniProt Q15834),inactive: 0.315
17,RABEP1 C350 (UniProt Q15276),inactive: 0.114
18,TBCE C141 (UniProt Q15813),inactive: 0.0907
19,PON2 C283 (UniProt Q15165),inactive: -0.274
20,FLYWCH1 C173 (UniProt Q4VC44),inactive: -0.052
21,PDCD4 C275 (UniProt Q53EL6),inactive: 0.162
22,TCEAL1 C88 (UniProt Q15170),inactive: 0.308
23,TWISTNB C5 (UniProt Q3B726),inactive: 0.461

# 18 consecutive entries already listed, quoted:
row,Target,log2 ratio of iodoacetamide-alkyne labeling
7,AMOT C1047 (UniProt Q4VCS5),inactive: 0.253
8,EFTUD2 C148 (UniProt Q15029),inactive: 0.0118
9,PPA1 C254 (UniProt Q15181),inactive: 0.125
10,IAH1 C9 (UniProt Q2TAA2),inactive: 0.429
11,SLC9A3R2 C271 (UniProt Q15599),inactive: 0.196
12,EFTUD2 C166 (UniProt Q15029),inactive: 0.0583
13,NSDHL C86 (UniProt Q15738),inactive: -0.0217
14,SF3B3 C1179 (UniProt Q15393),inactive: 0.0366
15,NONO C145 (UniProt Q15233),inactive: 0.0848
16,HSDL1 C328 (UniProt Q3SXM5),inactive: 0.239
17,SMAD2 C312 (UniProt Q15796),inactive: 0.261
18,PPA1 C274 (UniProt Q15181),inactive: 0.152
19,PDS5A C589 (UniProt Q29RF7),inactive: 0.183
20,UGP2 C123 (UniProt Q16851),inactive: 0.283
21,RABEP1 C533 (UniProt Q15276),inactive: 0.12
22,UniProt Q15475_C130,inactive: 0.269
23,RBBP7 C116 (UniProt Q16576),inactive: -0.0166
1,UniProt Q16513_C131,inactive: 0.326

# Remaining list, next part

row,Target,log2 ratio of iodoacetamide-alkyne labeling
1,SUZ12 C494 (UniProt Q15022),inactive: 0.0236
2,PDCD4 C227 (UniProt Q53EL6),inactive: 0.0405
3,PPA1 C242 (UniProt Q15181),inactive: 0.0976
4,UniProt Q15365_C194,inactive: 0.0881
5,PDS5A C532 (UniProt Q29RF7),inactive: 0.115
6,SEC23A C432 (UniProt Q15436),inactive: 0.414
7,LRRC14 C71 (UniProt Q15048),inactive: 0.451
8,INF2 C1029 (UniProt Q27J81),inactive: 0.27
9,HSD17B12 C215 (UniProt Q53GQ0),inactive: 0.107
10,ANKRD39 C168 (UniProt Q53RE8),inactive: 0.224
11,ACOX1 C199 (UniProt Q15067),inactive: -0.00385
12,UniProt Q15365_C158,inactive: 0.396
13,HNRNPUL2 C452 (UniProt Q1KMD3),inactive: -0.123
14,CEP55 C359 (UniProt Q53EZ4),inactive: 0.186
15,UniProt Q15042_C335,inactive: -0.0697
16,CSRP2 C58 (UniProt Q16527),inactive: 0.0655
17,GEN1 C668 (UniProt Q17RS7),inactive: -0.0508
18,UniProt Q2M1P5_C667,inactive: 0.175
19,CNN3 C59 (UniProt Q15417),inactive: 0.191
20,GLE1 C287 (UniProt Q53GS7),inactive: 0.394
21,ETFDH C561 (UniProt Q16134),inactive: 0.0665
22,HS1BP3 C287 (UniProt Q53T59),inactive: 0.373
23,FAM98B C216 (UniProt Q52LJ0),inactive: -0.0153

row,Target,log2 ratio of iodoacetamide-alkyne labeling
1,UniProt Q15149_C530,inactive: 0.243
2,PCM1 C957 (UniProt Q15154),inactive: 0.424
3,MED1 C443 (UniProt Q15648),inactive: 0.242
4,ANKRD39 C173 (UniProt Q53RE8),inactive: 0.0271
5,HNRNPUL2 C602 (UniProt Q1KMD3),inactive: 0.376
6,CEP55 C462 (UniProt Q53EZ4),inactive: 0.153
7,LONRF2 C166 (UniProt Q1L5Z9),inactive: -0.0253
8,CCDC93 C282 (UniProt Q567U6),inactive: -0.0896
9,UniProt Q15369_C11,inactive: 0.134
10,RBBP7 C97 (UniProt Q16576),inactive: 0.155
11,LRRC41 C792 (UniProt Q15345),inactive: 0.115
12,HERC1 C1941 (UniProt Q15751),inactive: 0.174
13,HNRNPUL2 C538 (UniProt Q1KMD3),inactive: 0.149
14,UniProt Q15365_C163,inactive: 0.0924
15,TBCE C371 (UniProt Q15813),inactive: 0.389
16,UniProt Q16625_C409,inactive: 0.158
17,LRRC41 C297 (UniProt Q15345),inactive: 0.172
18,FAM98B C295 (UniProt Q52LJ0),inactive: 0.586
19,LRRFIP1 C334 (UniProt Q32MZ4),inactive: -0.24
20,PTGES3 C75 (UniProt Q15185),inactive: 0.241
21,MED1 C135 (UniProt Q15648),inactive: 0.0948
